# Reference: PubChem BioAssay AID2685 (National Center for Advancing Translational Sciences (NCATS), 2010)
# The list shows a part of the results. These are further read-outs of the screen, such as a control signal, another cell line or another target. No call is given for them. Compounds called inactive in the main read-out are mostly missing here. The note in brackets gives the kind of curve behind each potency; many fits are weak.
# Assay: qHTS Assay for Lipid Storage Modulators in Drosophila S3 Cells;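 for cell number change: cells counted by Cell Tracker Red CMTPX staining in the red channel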
# Details: BODIPY lipid droplet fluorescence, 18-24 h; for cell number change: measured here: cell count max response, cells fed with added oleic acid
# Outline: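 Drosophila S3 cells loaded with oleic acid (400 uM, as added) and compounds at several concentrations; lipid droplets imaged by 488-nm laser-scanning cytometry, 500–530 nm intensity and object ratio to cell channel. Percent activity normalized to 20 uM Triacsin C.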
# [1] = measured here: cell number channel AC50, cells fed with added oleic acid
# [2] = measured here: lipid fluorescence (Fed channel) AC50, cells fed with added oleic acid
structure (smiles),measurement,setting,value
FC(F)Oc1ccc(-c2csc(NNC3=NCCCCC3)n2)cc1,cell number change,,-55.5%
same,AC50,[1],"32.6 µM [falling, single point]"
same,AC50,[2],"29.1 µM [falling, partial curve]"
O=C(CN1CCC(NC(=O)c2ccccc2)CC1)NCc1ccccc1F,cell number change,,16%
same,AC50,[2],"29.1 µM [rising, single point]"
CCCCN(CC)CCNC(=O)c1cc2c(-c3ccc(Cl)cc3)nn(C)c2s1,cell number change,,-31.6%
same,AC50,[1],"16.4 µM [falling, single point]"
COc1cc(C(=O)NCCCC2CCCC2)ccc1OC1CCN(C(C)=O)CC1,cell number change,,-5.25%
same,AC50,[2],"4.11 µM [rising, single point]"
N#C/C(=C1\CCCN1)c1nc(-c2ccccc2)cs1,cell number change,,7.67%
Cc1ccc(C)c(S(=O)(=O)N2CCN(C(=O)c3n[nH]c(=O)c4ccccc34)CC2)c1,cell number change,,0.205%
COC(=O)CNc1nc(-c2ccccc2F)nc2ccccc12,cell number change,,31.7%
same,AC50,[1],"1.03 µM [rising, full curve, poor fit]"
same,AC50,[2],"5.8 µM [rising, full curve]"
O=C(Nc1ccc(Nc2ccccc2)cc1)c1ccco1,cell number change,,204%
same,AC50,[1],"20.6 µM [rising, partial curve]"
O=C(c1ccc(CS(=O)Cc2ccc(Cl)cc2)o1)N1CCN(c2ccc(F)cc2)CC1 (centres undefined),AC50,[2],"0.146 µM [falling, full curve, poor fit]"
CC(C)(C)OC(=O)n1cc(/C=N/NC(=O)c2ccco2)c2ccccc21,cell number change,,29.3%
same,AC50,[2],"35.5 µM [falling, single point]"
COc1ccc(S(=O)(=O)N(Cc2ccc(OC)c(OC)c2)Cc2ccco2)cc1,cell number change,,-5.76%
same,AC50,[2],"1.16 µM [rising, full curve, poor fit]"
Cc1ncc(CO)c(/C=N/NC(=O)c2ccc(Br)cc2)c1O,cell number change,,5.06%
same,AC50,[2],"29.1 µM [falling, single point]"
Cc1cc(OCC(=O)NCc2ccncc2)ccc1Cl,cell number change,,9.82%
same,AC50,[2],"4.61 µM [rising, full curve, poor fit]"
CN(C)CCCN(C(=O)c1ccc(S(=O)(=O)N2CCc3ccccc3C2)cc1)c1nc2c(F)cc(F)cc2s1,cell number change,,-79.1%
same,AC50,[1],"18.4 µM [falling, single point]"
O=C(OCC1OC2OC3(CCCCC3)OC2C2OC3(CCCCC3)OC12)c1ccccc1 (centres undefined),cell number change,,36.8%
same,AC50,[1],"10.3 µM [rising, partial curve]"
same,AC50,[2],"13 µM [rising, partial curve]"
Cc1cc(NC(=O)Nc2cccs2)no1,cell number change,,137%
same,AC50,[1],"18.4 µM [rising, partial curve]"
same,AC50,[2],"3.66 µM [falling, partial curve]"
Oc1[nH]c(=S)sc1C=C1N=c2ccccc2=N1,cell number change,,-57.3%
same,AC50,[1],"18.4 µM [falling, partial curve]"
same,AC50,[2],"23.1 µM [falling, single point]"
Cc1cc(NC(=O)CN2C(=O)NC3(CCCCCC3)C2=O)ccc1Br,cell number change,,-17.4%
same,AC50,[1],"1.84 µM [falling, partial curve, poor fit]"
same,AC50,[2],"1.16 µM [falling, partial curve]"
CN(Cc1ccccc1)C(=O)c1ccc(NC(=O)Cc2cccc(NC(=O)C3CCN(C(=O)C4CCCC4)CC3)c2)cc1,cell number change,,-16%
CC1=C(C(=O)Nc2ccc(C)cc2C)C(c2ccc(C)o2)NC(=O)N1 (centres undefined),AC50,[1],"1.84 µM [rising, partial curve]"
CCN(CC)S(=O)(=O)c1cccc(C(=O)N[C@H](C(=O)OCC(N)=O)C(C)C)c1,cell number change,,16.4%
same,AC50,[2],"29.1 µM [falling, single point]"
CCc1ccccc1N(C)S(=O)(=O)c1ccc2[nH]cc(C(=O)O)c(=O)c2c1,AC50,[1],"0.231 µM [rising, full curve, poor fit]"
same,AC50,[2],"4.11 µM [rising, full curve]"
O=C(Nc1cccc(O)c1)c1ccc(Br)c(S(=O)(=O)N2CCCCC2)c1,cell number change,,-10.6%
same,AC50,[1],"3.66 µM [falling, partial curve, poor fit]"
same,AC50,[2],"0.164 µM [falling, partial curve]"
Nc1ncnc2nc(SCc3ccc(Cl)cc3Cl)[nH]c12,cell number change,,-22.2%
same,AC50,[1],"6.51 µM [rising, single point]"
same,AC50,[2],"6.51 µM [rising, single point]"
COc1cccc(NC(=S)NC(=O)c2c(Cl)c(C)nn2C)c1,cell number change,,17.9%
same,AC50,[2],"29.1 µM [rising, single point]"
O=C(O)C1CCN(S(=O)(=O)c2cccc3nonc23)CC1,AC50,[2],"29.1 µM [rising, single point]"
CCOC(=O)c1nncc(-c2ccccc2)n1,cell number change,,13.5%
same,AC50,[2],"23.1 µM [rising, single point]"
C=CCc1ccccc1OCC(O)CN1CCN(c2ccc(C)cc2)CC1 (centres undefined),cell number change,,-68.9%
same,AC50,[1],"29.1 µM [falling, single point]"
same,AC50,[2],"29.1 µM [falling, partial curve, poor fit]"
CCNC(=O)COc1ccc(-c2ccccc2)cc1,cell number change,,39.6%
same,AC50,[1],"29.1 µM [rising, single point]"
c1ccc(NCC2OCc3ccccc3CO2)cc1,cell number change,,11.5%
same,AC50,[2],"16.4 µM [rising, partial curve]"
CC1(C)CC(=O)C(C2(O)C(=O)N(Cc3ccccc3)c3ccccc32)CO1 (centres undefined),cell number change,,8.48%
same,AC50,[2],"29.1 µM [rising, single point]"
O=C(O)CCc1ccc(-c2ccccc2)n1-c1cccc(O)c1,cell number change,,-11.8%
same,AC50,[1],"0.291 µM [falling, full curve, poor fit]"
CC1(C)CC(=O)C=C(NCc2ccco2)C1,cell number change,,-19.2%
same,AC50,[2],"23.1 µM [falling, partial curve]"
COc1cc2c(c3oc(-c4ccccc4)cc(=O)c13)C=CC(C)(C)O2,cell number change,,-22%
same,AC50,[2],"29.1 µM [falling, single point]"
Cc1ccccc1C(=O)c1c[nH]c(C(=O)NCc2cccs2)c1,cell number change,,106%
Cc1ccc(N2CCN(C(=O)N3CCCC3)CC2)cc1C,cell number change,,32.4%
same,AC50,[1],"6.51 µM [rising, full curve, poor fit]"
same,AC50,[2],"29.1 µM [falling, single point]"
O=C(COC(=O)c1cc(-c2ccc(F)cc2)nc2ccccc12)NCC1CCCO1 (centres undefined),cell number change,,73.9%
O=C(O)CSc1nnc(-c2cccc(S(=O)(=O)N3CCCCC3)c2)o1,cell number change,,-17.7%
same,AC50,[2],"29.1 µM [falling, single point]"
COCCOC(=O)c1[nH]c2c(c1C)C(=O)CC(c1cc(OC)ccc1OC)C2 (centres undefined),AC50,[2],"1.46 µM [rising, partial curve]"
O=C1OCCC1S(=O)(=O)c1ccc2ccccc2c1 (centres undefined),cell number change,,0.721%
same,AC50,[2],"2.59 µM [rising, single point]"
CCCNC(=O)C(Cc1ccccc1F)NC(=O)c1ccccn1 (centres undefined),cell number change,,2.41%
same,AC50,[2],"29.1 µM [rising, single point]"
CCc1ccc2nc(N(CCCN(C)C)C(=O)c3ccc(S(=O)(=O)N4CCCC4)cc3)sc2c1,cell number change,,37.5%
same,AC50,[1],"14.6 µM [rising, partial curve, poor fit]"
same,AC50,[2],"11.6 µM [rising, partial curve]"
C=CC#CC1(O)CC(C)N(C)CC1C (centres undefined),cell number change,,-16.6%
Cc1cccc(-c2noc(CCC(=O)NC3CCCC3)n2)c1,cell number change,,32.1%
same,AC50,[1],"0.92 µM [rising, full curve, poor fit]"
Cc1cccnc1NC(=O)CCC(=O)c1cccs1,cell number change,,32.7%
same,AC50,[1],"0.231 µM [rising, full curve, poor fit]"
same,AC50,[2],"1.03 µM [rising, partial curve]"
Cc1cc(C)c(NC(=O)c2cccc3c2C(=O)N(C2CCCCC2)C3)c(C)c1,cell number change,,0.59%
same,AC50,[2],"29.1 µM [falling, single point]"
CCOc1c(Cl)cc(C(=O)Nc2cccc(C(=O)O)c2)cc1Cl,cell number change,,4.83%
same,AC50,[2],"6.51 µM [falling, single point]"
COc1cccc(/C=C2/C(=O)NN(c3ccc(C)c(C)c3)C2=O)c1,cell number change,,11.3%
same,AC50,[2],"3.66 µM [falling, full curve, poor fit]"
COc1cc(/C=C(\C#N)c2nc3ccc(C)cc3[nH]2)cc([N+](=O)[O-])c1O,cell number change,,-42.4%
same,AC50,[1],"29.1 µM [falling, single point]"
same,AC50,[2],"29.1 µM [falling, single point]"
COc1ccccc1C1C(C(N)=O)=C(C)Nc2ncnn21 (centres undefined),cell number change,,3.81%
same,AC50,[2],"0.82 µM [falling, single point]"
N#Cc1c(=O)c2nc(NCc3ccccc3)ncc2n2ccccc12,cell number change,,41.4%
same,AC50,[1],"0.58 µM [rising, partial curve]"
Cc1ccc(SCCOCCN2CCc3ccccc3C2)cc1,cell number change,,-34.5%
same,AC50,[1],"29.1 µM [falling, single point]"
same,AC50,[2],"29.1 µM [falling, single point]"
Cc1ccc(S(=O)(=O)N2CCCCC2C(=O)N(C)c2ccccc2)cc1 (centres undefined),cell number change,,5.76%
same,AC50,[2],"6.51 µM [rising, single point]"
COCCNC(=S)N/N=C/c1ccc(OCc2ccc(C(=O)OC)cc2)c(OC)c1,cell number change,,14.3%
same,AC50,[2],"6.51 µM [rising, partial curve]"
CCOc1cc(Br)cc(/C=C2\SC(=Nc3ccccc3)NC2=O)c1O,cell number change,,-97.6%
same,AC50,[1],"16.4 µM [falling, single point]"
same,AC50,[2],"23.1 µM [falling, single point]"
CCn1c(=O)cc(SCC(=O)N2CCC(C)CC2)c2ccccc21,cell number change,,-13.5%
same,AC50,[1],"2.59 µM [falling, single point]"
same,AC50,[2],"6.51 µM [falling, single point]"
CN1CCN(c2ccc(NC(=O)c3cc(Cl)c4c(c3)OCCO4)cc2)CC1,cell number change,,27.5%

# A run of entries from the list above:
structure (smiles),measurement,setting,value
Cc1cc(C)c(NC(=O)c2cccc3c2C(=O)N(C2CCCCC2)C3)c(C)c1,AC50,[2],"29.1 µM [falling, single point]"
CCOc1c(Cl)cc(C(=O)Nc2cccc(C(=O)O)c2)cc1Cl,cell number change,,4.83%
same,AC50,[2],"6.51 µM [falling, single point]"
COc1cccc(/C=C2/C(=O)NN(c3ccc(C)c(C)c3)C2=O)c1,cell number change,,11.3%
same,AC50,[2],"3.66 µM [falling, full curve, poor fit]"

# Given with bars between the fields: entries from further up.
structure (smiles) | measurement | setting | value
CC(C)(C)OC(=O)n1cc(/C=N/NC(=O)c2ccco2)c2ccccc21 | AC50 | [2] | 35.5 µM [falling, single point]
COc1ccc(S(=O)(=O)N(Cc2ccc(OC)c(OC)c2)Cc2ccco2)cc1 | cell number change |  | -5.76%
